According to PMC9964033:
Results are given in words; binding and its absence hold for the method and conditions named. Binding seen in cells or lysates may run through a third protein. Here binding means that the protein was enriched with, or labelled near, the bait; the list need not be complete.

By UniProt entry, the sequences of proteins in these tests, tags left out.
UniProt Q8K202: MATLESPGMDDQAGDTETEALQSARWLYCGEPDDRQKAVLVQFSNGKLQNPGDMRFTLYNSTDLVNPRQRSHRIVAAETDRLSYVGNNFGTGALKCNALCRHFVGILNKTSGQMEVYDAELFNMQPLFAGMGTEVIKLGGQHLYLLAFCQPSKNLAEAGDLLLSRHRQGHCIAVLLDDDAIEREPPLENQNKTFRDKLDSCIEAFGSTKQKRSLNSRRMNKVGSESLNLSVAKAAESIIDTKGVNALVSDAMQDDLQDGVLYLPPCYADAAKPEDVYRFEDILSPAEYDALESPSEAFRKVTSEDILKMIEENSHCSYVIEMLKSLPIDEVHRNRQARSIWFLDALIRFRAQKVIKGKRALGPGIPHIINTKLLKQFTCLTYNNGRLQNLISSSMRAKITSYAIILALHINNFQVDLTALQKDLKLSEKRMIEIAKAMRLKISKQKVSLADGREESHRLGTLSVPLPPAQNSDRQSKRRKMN
UniProt P54276: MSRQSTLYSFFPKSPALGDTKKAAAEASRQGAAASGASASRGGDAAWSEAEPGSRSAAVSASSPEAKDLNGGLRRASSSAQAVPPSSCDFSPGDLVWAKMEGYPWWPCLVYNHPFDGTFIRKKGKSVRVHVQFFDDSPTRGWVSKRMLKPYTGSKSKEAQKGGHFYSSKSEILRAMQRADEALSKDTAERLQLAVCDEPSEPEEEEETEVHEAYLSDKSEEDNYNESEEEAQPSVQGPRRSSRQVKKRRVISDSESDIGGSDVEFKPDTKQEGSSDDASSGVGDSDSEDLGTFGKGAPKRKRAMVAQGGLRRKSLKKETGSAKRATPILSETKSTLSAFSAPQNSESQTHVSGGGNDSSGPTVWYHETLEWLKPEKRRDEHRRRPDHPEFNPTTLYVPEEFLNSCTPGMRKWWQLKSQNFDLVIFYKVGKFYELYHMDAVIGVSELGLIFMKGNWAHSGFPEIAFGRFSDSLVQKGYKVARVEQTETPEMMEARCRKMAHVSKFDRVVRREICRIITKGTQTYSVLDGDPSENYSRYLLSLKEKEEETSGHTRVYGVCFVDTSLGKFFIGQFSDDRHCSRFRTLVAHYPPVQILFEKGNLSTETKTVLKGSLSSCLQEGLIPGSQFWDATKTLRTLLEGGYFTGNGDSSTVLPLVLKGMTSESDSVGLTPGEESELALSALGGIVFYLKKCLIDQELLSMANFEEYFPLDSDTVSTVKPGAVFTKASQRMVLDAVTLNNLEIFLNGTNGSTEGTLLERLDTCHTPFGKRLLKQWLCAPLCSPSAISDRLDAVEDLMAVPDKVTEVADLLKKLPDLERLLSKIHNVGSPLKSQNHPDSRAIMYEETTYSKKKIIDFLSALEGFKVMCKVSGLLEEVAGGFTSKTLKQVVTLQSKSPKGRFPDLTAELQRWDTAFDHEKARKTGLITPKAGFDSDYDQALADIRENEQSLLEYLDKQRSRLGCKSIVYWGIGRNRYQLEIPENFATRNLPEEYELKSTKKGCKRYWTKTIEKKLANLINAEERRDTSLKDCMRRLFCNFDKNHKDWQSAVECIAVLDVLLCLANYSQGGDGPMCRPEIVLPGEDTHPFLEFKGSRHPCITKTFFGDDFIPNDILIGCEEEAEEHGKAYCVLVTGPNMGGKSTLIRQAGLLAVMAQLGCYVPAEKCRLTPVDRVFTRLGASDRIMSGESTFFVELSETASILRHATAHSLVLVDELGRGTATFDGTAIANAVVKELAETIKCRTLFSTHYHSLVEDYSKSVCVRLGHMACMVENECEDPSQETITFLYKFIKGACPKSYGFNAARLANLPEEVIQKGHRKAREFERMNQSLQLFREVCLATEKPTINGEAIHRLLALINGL
UniProt Q61584: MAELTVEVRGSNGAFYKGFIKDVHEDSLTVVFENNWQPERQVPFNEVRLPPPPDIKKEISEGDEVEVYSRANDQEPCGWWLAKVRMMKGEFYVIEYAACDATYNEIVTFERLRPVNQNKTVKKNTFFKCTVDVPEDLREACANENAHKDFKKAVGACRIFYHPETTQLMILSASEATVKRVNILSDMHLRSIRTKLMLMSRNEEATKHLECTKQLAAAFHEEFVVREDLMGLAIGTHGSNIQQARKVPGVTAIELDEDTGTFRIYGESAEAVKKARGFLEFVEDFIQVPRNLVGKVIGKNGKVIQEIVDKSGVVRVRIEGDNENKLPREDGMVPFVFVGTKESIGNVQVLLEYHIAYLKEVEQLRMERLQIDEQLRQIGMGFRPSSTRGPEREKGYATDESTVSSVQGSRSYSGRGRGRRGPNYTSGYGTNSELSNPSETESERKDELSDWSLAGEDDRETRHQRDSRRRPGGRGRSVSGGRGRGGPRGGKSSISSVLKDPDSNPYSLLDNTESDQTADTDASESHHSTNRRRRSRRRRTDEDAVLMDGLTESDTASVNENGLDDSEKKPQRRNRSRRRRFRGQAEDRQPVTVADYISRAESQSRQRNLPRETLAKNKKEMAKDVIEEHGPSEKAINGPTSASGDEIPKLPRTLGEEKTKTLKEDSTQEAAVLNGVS
UniProt P97452: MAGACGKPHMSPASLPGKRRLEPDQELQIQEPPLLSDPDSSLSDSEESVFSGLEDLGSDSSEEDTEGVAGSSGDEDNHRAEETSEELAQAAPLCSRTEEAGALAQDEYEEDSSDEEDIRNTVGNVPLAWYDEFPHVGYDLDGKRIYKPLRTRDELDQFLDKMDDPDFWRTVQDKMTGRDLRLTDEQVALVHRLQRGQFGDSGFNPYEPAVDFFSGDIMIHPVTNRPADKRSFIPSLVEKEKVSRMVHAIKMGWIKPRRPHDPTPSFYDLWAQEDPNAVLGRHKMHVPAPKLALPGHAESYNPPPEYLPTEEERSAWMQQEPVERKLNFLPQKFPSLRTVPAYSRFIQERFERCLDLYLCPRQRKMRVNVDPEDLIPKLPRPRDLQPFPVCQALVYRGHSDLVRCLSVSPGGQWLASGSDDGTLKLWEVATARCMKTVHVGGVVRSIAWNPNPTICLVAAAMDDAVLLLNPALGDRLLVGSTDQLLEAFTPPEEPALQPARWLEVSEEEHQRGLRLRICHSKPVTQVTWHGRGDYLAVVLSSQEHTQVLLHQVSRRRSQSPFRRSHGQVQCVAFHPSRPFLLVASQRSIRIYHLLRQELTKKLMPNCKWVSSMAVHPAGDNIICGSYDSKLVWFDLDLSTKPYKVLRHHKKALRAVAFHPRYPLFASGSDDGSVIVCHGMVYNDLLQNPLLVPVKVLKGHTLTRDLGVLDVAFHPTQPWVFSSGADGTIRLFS
UniProt Q99NH2: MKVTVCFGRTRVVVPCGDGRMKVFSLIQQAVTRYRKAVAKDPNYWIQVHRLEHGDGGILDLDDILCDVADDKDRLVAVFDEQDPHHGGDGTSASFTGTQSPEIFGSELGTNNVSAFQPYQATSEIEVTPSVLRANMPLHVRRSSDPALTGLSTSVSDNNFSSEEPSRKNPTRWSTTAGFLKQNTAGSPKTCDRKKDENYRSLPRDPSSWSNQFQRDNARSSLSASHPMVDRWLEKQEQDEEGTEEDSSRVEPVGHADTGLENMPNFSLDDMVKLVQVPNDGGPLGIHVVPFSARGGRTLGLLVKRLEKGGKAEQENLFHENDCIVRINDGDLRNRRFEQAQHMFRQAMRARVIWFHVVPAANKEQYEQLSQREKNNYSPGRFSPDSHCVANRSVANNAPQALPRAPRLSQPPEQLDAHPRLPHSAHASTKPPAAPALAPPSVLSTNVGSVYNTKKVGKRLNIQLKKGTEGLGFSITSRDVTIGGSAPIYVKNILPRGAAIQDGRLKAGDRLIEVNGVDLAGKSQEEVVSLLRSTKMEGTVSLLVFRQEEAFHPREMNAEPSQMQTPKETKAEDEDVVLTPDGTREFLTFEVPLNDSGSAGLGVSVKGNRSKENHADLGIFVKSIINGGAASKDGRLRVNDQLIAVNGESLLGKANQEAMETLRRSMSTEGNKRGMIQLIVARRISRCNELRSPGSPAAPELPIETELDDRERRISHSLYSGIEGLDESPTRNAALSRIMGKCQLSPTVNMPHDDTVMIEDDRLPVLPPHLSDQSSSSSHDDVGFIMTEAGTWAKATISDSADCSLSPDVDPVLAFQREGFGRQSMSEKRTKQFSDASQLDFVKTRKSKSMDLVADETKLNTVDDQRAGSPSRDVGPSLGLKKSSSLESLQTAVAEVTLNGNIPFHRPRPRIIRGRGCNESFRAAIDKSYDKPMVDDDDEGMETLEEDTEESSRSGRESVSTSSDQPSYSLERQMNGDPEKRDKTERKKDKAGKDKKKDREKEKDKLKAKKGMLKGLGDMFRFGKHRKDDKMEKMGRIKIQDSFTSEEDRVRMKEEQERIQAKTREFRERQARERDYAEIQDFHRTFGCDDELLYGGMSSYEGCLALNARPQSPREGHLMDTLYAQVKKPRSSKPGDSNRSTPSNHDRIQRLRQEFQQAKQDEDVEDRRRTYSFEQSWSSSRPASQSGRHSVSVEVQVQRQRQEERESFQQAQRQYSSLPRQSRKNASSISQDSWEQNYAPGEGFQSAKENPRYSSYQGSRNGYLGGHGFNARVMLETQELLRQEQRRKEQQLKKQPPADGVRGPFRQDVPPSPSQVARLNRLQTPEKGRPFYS
UniProt Q80TJ7: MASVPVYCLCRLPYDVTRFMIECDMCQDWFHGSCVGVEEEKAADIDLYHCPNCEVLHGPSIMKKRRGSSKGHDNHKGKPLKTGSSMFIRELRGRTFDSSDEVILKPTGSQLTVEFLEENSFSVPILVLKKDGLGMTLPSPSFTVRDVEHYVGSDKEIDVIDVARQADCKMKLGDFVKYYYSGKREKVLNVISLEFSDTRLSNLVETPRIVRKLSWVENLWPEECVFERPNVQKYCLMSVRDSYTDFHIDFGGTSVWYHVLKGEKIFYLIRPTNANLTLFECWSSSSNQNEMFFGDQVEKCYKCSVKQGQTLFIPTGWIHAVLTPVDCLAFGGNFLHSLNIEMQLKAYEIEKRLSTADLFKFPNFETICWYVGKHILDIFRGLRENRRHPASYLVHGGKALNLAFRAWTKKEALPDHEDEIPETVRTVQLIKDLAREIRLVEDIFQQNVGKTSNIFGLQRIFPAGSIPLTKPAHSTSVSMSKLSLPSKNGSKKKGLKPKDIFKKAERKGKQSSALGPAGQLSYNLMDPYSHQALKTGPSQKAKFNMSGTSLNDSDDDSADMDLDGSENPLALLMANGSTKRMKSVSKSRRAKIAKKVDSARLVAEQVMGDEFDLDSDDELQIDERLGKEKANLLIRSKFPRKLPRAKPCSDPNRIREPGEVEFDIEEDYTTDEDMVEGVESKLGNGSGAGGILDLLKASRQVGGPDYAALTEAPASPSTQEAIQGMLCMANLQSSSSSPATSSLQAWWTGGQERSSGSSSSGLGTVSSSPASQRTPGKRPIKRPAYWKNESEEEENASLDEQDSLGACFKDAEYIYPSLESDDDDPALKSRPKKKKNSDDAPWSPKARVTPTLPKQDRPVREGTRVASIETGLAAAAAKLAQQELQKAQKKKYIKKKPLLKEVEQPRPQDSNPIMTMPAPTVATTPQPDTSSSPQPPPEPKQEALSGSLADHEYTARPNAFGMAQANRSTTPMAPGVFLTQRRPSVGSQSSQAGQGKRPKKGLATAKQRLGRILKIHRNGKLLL
UniProt Q8CIP4: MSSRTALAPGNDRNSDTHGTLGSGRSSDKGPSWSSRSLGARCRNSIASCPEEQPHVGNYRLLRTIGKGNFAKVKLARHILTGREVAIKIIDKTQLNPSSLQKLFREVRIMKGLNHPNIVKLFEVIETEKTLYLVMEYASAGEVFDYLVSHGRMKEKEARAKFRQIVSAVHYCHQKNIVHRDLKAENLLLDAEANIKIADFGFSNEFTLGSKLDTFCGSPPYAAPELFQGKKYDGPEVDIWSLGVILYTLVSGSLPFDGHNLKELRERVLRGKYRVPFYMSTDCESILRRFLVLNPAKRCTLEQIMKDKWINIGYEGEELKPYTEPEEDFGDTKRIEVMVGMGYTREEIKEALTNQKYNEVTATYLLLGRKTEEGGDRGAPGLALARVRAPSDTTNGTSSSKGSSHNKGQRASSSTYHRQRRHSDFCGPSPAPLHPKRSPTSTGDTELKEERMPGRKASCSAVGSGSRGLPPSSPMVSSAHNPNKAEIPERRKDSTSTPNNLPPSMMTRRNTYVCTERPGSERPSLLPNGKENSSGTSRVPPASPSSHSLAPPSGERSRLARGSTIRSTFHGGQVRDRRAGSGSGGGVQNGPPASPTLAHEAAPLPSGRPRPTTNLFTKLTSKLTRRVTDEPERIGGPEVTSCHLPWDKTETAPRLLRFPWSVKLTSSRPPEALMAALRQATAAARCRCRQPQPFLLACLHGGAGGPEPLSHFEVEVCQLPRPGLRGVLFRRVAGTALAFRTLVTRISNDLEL

T1: CPEB3 (full-length), expressed in mouse neuroblastoma N2A cells (mouse) (UniProt Q7TN99)
T1 sequence: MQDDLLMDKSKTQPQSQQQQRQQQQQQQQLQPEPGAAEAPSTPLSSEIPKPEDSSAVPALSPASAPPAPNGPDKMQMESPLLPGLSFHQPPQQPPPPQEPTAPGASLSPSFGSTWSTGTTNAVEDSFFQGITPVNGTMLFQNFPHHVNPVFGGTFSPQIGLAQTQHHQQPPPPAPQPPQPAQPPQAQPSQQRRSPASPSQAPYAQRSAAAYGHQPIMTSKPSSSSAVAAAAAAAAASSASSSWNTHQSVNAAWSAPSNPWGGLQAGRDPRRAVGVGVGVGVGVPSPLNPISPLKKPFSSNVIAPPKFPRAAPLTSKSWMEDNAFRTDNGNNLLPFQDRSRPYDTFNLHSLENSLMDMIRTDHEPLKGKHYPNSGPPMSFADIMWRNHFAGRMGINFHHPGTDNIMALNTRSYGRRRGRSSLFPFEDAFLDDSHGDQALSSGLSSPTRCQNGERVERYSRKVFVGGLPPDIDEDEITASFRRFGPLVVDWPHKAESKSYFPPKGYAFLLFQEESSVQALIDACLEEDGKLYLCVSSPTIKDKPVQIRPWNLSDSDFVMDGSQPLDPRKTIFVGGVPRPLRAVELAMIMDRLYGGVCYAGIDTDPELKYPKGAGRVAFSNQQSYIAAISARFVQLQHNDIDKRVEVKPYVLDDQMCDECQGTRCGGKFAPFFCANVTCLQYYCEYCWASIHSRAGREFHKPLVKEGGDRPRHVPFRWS


The molecules below were run against T1, CPEB3 (full-length), expressed in mouse neuroblastoma N2A cells (mouse) (assay: affinity purification with mass spectrometry; interactomes of N2A-expressed CPEB3 and S240-242A compared (Fischer's test); immunoprecipitation from RIPA + NEM lysate, LC-MS/MS).

Row | binding | Molecule
1 | binds | Polr1e (from UniProt Q8K202 1-482)
2 | binds | Msh6 (from UniProt P54276 1-1358)
3 | binds | FMR1 Autosomal Homolog 1 (from UniProt Q61584 1-677)
4 | binds | Bop1 (from UniProt P97452 1-732)
5 | binds | Pard3 (from UniProt Q99NH2 1-1333)
6 | binds | Phf8 (from UniProt Q80TJ7 1-1023)
7 | binds | Mark4 (from UniProt Q8CIP4 1-752)
8 | binds | Imp3 (protein, UniProt Q921Y2 1-184) MVRKLKFHEQKLLKQVDFLNWEVTDHNLHELRVLRRYRLQRREEYTRYNQLSRAVRELARRLRDLPERDPFRVRASAALLDKLYAMGLVPTRGSLELCDSVSASSFCRRRLPTLLLKLRMAQHLQAAVAFVEQGHVRVGPDVVTDPAFLVTRSMEDFVTWVDSSKIKRHVLEYNEERDDFDLDA
9 | binds | Ddx46 (protein, UniProt Q569Z5 1-1032) MGRESRHYRKRSASRGRSGSRSRSRSPSDKRSKRGDDRRSRSRDRDRRRERSRSRDKRRSRSRDRKRLRRSRSRERDRSRERRRSRSRDRRRSRSRSRGRRSRSSSPGSKTKKTENRSRSKEKAEGGDSSKEKKKDKDDKEDEKEKDAGNFDQNKLEEEMRKRKERVEKWREEQRKKAMENIGELKKEIEEMKQGKKWSLEDDDDDEDDPAEAEKEGTEMEDEELDPLDAYMEEVKEEVKKFNMRSVKGGAGNEKKSGPTVTKVVTVVTTKKAVVDADKKKGELMENDQDAMEYSSEEEEVDLQTALTGYQTKQRKLLEPVDHGKIEYEPFRKNFYVEVPELAKMSQEEVNVFRLEMEGITVKGKGCPKPIKSWVQCGISMKILNSLKKHGYEKPTPIQTQAIPAIMSGRDLIGIAKTGSGKTIAFLLPMFRHIMDQRSLEEGEGPIAVIMTPTRELALQITKECKKFSKTLGLRVVCVYGGTGISEQIAELKRGAEIIVCTPGRMIDMLAANSGRVTNLRRVTYVVLDEADRMFDMGFEPQVMRIVDNVRPDRQTVMFSATFPRAMEALARRILSKPIEVQVGGRSVVCSDVEQQVIVIEEEKKFLKLLELLGHYQESGSVIIFVDKQEHADGLLKDLMRASYPCMSLHGGIDQYDRDSIINDFKNGTCKLLVATSVAARGLDVKHLILVVNYSCPNHYEDYVHRAGRTGRAGNKGYAYTFITEDQARYAGDIIKALELSGTAVPPDLEKLWSDFKDQQKAEGKIIKKSSGFSGKGFKFDETEQALANERKKLQKAALGLQDSDDEDAAVDIDEQIESMFNSKKRVKDMAAPGTSSVPAPTAGNAEKLEIAKRLALRINAQKNLGIESQVDVMQQATNAILRGGTILAPTVSAKTIAEQLAEKINAKLNYVPLEKQEEERQEGGQSESFKRYEEELEINDFPQTARWKVTSKEALQRISEYSEAAITIRGTYFPPGKEPKEGERKIYLAIESANELAVQKAKAEITRLIKEELIRLQNSYQPTNKGRYKVL
10 | binds | Ckap2 (protein, UniProt Q3V1H1 1-664) MAESRKRFLGRAARNPLPVTRDLQLPPTRRDQPAFREQRKQKLKEYLLIRKTVFPYKQENQISRDQKMITSEDRVQEGKKVVKLKTEVADKENIESTVEKNCIPLKAGEVTSSEIHNSKDNVQAVQLLSTRDDLPGQTVTLDPACHHKDNKKMQMTAEKPKQDSNVSKKRVLGYYHGQIVQSKINSFRKLPSVKGESLTTTKKLPTTVSKAMKAQSEPANTVSVKASTTAAATKFADAKPVSTASKDTLVRPPIRSLHSSSHGAAKQGLSRPLANVTVRKGMLDKESHRSEPVVSVVKAGSSQAPSRSIASKDAARTDSSNTRLMVKPKDTDQRRYTIAGASVHRSAQLKDTTAERKAQMTEWRTGKGKGLKRPPHSVVTQAEPKGQSENPVGSFWTTMAEEDEQRLFTEKVNKTISECLNLINEGCPKEEILATLNDLIHNIPDAKKLVKYWICLVRIEPITSPIENIISIYEKAILAGAQPIEEMRHIIIDILTTKSQEKVNLGENIEEAHATKEPIQEVNADANVGSGKPGEENEHHGKVEVYEDDQDNKIKDPDLTTPDSKTEAGCIIRYNVSSTPRLQSMKKMQHDKNSTLKELKFLTPVRRSRRIQDKTSRLPAMLKDHDPSVSSLEQLSELGGDAFVCRPNAALCPLFFETDVAEEE
11 | binds | Cmss1 (protein, UniProt Q9CZT6 1-276) MADDLGDEWWENQPAAASSPEQSGGEEGGDTEMTQQDTAPVPEKTQQPTECFLTQTKEPKAEDSRKTRKWKKKKISDILAKSEPKPGTPEDLQKLIRDHYSSSRSVIELEELHLPDSCFLKANDLTHSLSSYLKEICPKWVKLRKTHNEKKSVLMLILCSSAVRALELIRSLTAFKGDAKVMKLFAKHIKVQEQVKLLEKRVIHLGVGTPGRIKELVKQDGLHLNPLKFLVFDWNWRDQKLRRMMDIPEIRKEVFELLDMGVFSLCKSDSLKLGLF
12 | binds | Ctcf (protein, UniProt Q61164 1-736) MEGEAVEAIVEESETFIKGKERKTYQRRREGGQEEDACHLPQNQTDGGEVVQDVNSSVQMVMMEQLDPTLLQMKTEVMEGTVAPEAEAAVDDTQIITLQVVNMEEQPINIGELQLVQVPVPVTVPVATTSVEELQGAYENEVSKEGLAESEPMICHTLPLPEGFQVVKVGANGEVETLEQGELPPQEDSSWQKDPDYQPPAKKTKKTKKSKLRYTEEGKDVDVSVYDFEEEQQEGLLSEVNAEKVVGNMKPPKPTKIKKKGVKKTFQCELCSYTCPRRSNLDRHMKSHTDERPHKCHLCGRAFRTVTLLRNHLNTHTGTRPHKCPDCDMAFVTSGELVRHRRYKHTHEKPFKCSMCDYASVEVSKLKRHIRSHTGERPFQCSLCSYASRDTYKLKRHMRTHSGEKPYECYICHARFTQSGTMKMHILQKHTENVAKFHCPHCDTVIARKSDLGVHLRKQHSYIEQGKKCRYCDAVFHERYALIQHQKSHKNEKRFKCDQCDYACRQERHMIMHKRTHTGEKPYACSHCDKTFRQKQLLDMHFKRYHDPNFVPAAFVCSKCGKTFTRRNTMARHADNCAGPDGVEGENGGETKKSKRGRKRKMRSKKEDSSDSEENAEPDLDDNEEEEEPAVEIEPEPEPQPQPPPPPQPVAPAPPPAKKRRGRPPGRTNQPKQNQPTAIIQVEDQNTGAIENIIVEVKKEPDAEPAEGEEEEAQAATTDAPNGDLTPEMILSMMDR
13 | binds | Kif4 (protein, UniProt P33174 1-1231) MKEEVKGIPVRVALRCRPLVSKEIKEGCQTCLSFVPGEPQVVVGNDKSFTYDFVFDPSTEQEEVFNTAVAPLIKGVFKGYNATVLAYGQTGSGKTYSMGGAYTAEQEHDSAIGVIPRVIQLLFKEINKKSDFEFTLKVSYLEIYNEEILDLLCSSREKATQINIREDPKEGIKIVGLTEKTVLVASDTVSCLEQGNNSRTVASTAMNSQSSRSHAIFTISIEQRKKNDKNSSFRSKLHLVDLAGSERQKKTKAEGDRLREGININRGLLCLGNVISALGDDKKGNFVPYRDSKLTRLLQDSLGGNSHTLMIACVSPADSNLEETLNTLRYADRARKIKNKPIINIDPQAAELNHLKQQVQQLQILLLQAHGGTLPGDINVEPSENLQSLMEKNQSLVEENEKLSRGLSEAAGQTAQMLERIILTEQANEKMNAKLEELRRHAACKVDLQKLVETLEDQELKENIEIICNLQQVIAQLSDEAAACMTATIDTAGEADTQVQSSPDTSRSSDVFSTQHALRQAQMSKELIELNKALALKEALAKKMTQNDNQLQPIQFQYQDNIKNLESEVLSLQREKEELVLELQTAKKDANQAKLSERRRKRLQELEGQIADLKKKLQEQSKLLKLKESTEHTVSKLNQEIRMMKNQRVQLMRQMKEDAEKFRQWKQQKDKEVIQLKERDRKRQYELLKLERNFQKQSNVLRRKTEEAAAANKRLKDALQKQKEVAEKRKETQSRGMESTAARMKNWLGNEIEVMVSTEEAKRHLNGLLEERKILAQDVAQLKEKRESGENPPLKLRRRTFSYDEIHGQDSGAEDSIAKQIESLETELELRSAQIADLQQKLLDAESEDRPKQRWESIATILEAKCAIKYLVGELVSSKILVSKLESSLNQSKASCIDVQKMLFEEQNHFAKIETELKEELVKVEQQHQEKVLYLLSQLQQSQMTEKQLEESVSEKEQQLLSTLKCQEEELRKMQEVCEQNQQLLQENSAIKQKLTLLQVASKQKPHLTRNIFQSPDSSFEYIPPKPKPCRIKEKCLEQSFAVEGLQYYSEPSVAEQDNEDSDDHADEEWIPTKLVKVSKKSIQGCSCKGWCGNKQCGCRKQKSDCNVSCSCDPTKCRNRHQNQDNSDAIELNQDSENSFKLEDPTEVTSGLSFFHPICATPSSKILKEMCDADQVQLKQPVFVSSSDHPELKSIASESQENKAIGKKKKRALASNTSFFSGCSPIQEESH
